PubChem BioAssay AID1259254, NCATS – 2017
Here is a random part of about 59,000 reagents. About 1,550 of them (2.6%) count as active. 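G2 share is only a proxy for re-replication; each gene was hit by three separate siRNAs, and active genes were retested.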 Entries without a mark were called inactive. Further read-outs or replicates are left out here. Reagent sequences are not shown. The record does not give: the amount of reagent.

- Purpose: 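Genome-wide screen for genes that prevent DNA re-replication in cancer cells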 (primary screen)
- Cells: human HCT116 colorectal cancer cells
- Reagent: single siRNA against human genes
- Duration: 3 days
- Measured: 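Nuclei stained with Hoechst and imaged; cell-cycle phase assigned by DNA content; G2 share scaled per plate, non-targeting siRNA 0%, GMNN siRNA 100%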
- Scale: G2 robust z-score: higher = more G2 cells, more excess DNA replication
- Hit rule: 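An siRNA counts as active if its G2 robust z-score lies at least 5 MADs above the screen median; here such calls match roughly 38% of GMNN control or more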

Target gene	PubChem SID	G2 robust z-score
NANOS2 (nanos C2HC-type zinc finger 2)	SID160764211	0.173
NANOS2 (nanos C2HC-type zinc finger 2)	SID160764212	-0.557
NANOS2 (nanos C2HC-type zinc finger 2)	SID160764213	-0.602
DTD1 (D-aminoacyl-tRNA deacylase 1)	SID160754331	0.159
DTD1 (D-aminoacyl-tRNA deacylase 1)	SID160754333	-0.384
DTD1 (D-aminoacyl-tRNA deacylase 1)	SID160754334	-1.18
NOS1AP (nitric oxide synthase 1 adaptor protein)	SID160722901	-1.19
NOS1AP (nitric oxide synthase 1 adaptor protein)	SID160722902	-0.673
NOS1AP (nitric oxide synthase 1 adaptor protein)	SID160732217	-0.821
MPP1 (MAGUK p55 scaffold protein 1)	SID160777429	-1.17
MPP1 (MAGUK p55 scaffold protein 1)	SID160777430	0.521
MPP1 (MAGUK p55 scaffold protein 1)	SID160777431	-0.79
RPL37 (ribosomal protein L37)	SID160716104	5.85 (active)
RPL37 (ribosomal protein L37)	SID160716105	2.85
RPL37 (ribosomal protein L37)	SID160716106	1.18
SAMD10 (sterile alpha motif domain containing 10)	SID160724827	-0.502
SAMD10 (sterile alpha motif domain containing 10)	SID160757849	-0.99
SAMD10 (sterile alpha motif domain containing 10)	SID160757850	5.75 (active)
SPMIP4 (sperm microtubule inner protein 4)	SID160732488	-0.508
SPMIP4 (sperm microtubule inner protein 4)	SID160757496	-0.401
SPMIP4 (sperm microtubule inner protein 4)	SID160757497	0.163
SLIT1 (slit guidance ligand 1)	SID160717010	-0.585
SLIT1 (slit guidance ligand 1)	SID160717011	-0.785
SLIT1 (slit guidance ligand 1)	SID160717012	1.73
FAM184A (family with sequence similarity 184 member A)	SID160749045	0.589
FAM184A (family with sequence similarity 184 member A)	SID160749046	-0.445
FAM184A (family with sequence similarity 184 member A)	SID160749047	-0.569
EPHA7 (EPH receptor A7)	SID160760929	-0.298
EPHA7 (EPH receptor A7)	SID160760938	2.36
EPHA7 (EPH receptor A7)	SID160760947	0.492
DCTN6 (dynactin subunit 6)	SID160729015	-1.26
DCTN6 (dynactin subunit 6)	SID160729016	3.22
DCTN6 (dynactin subunit 6)	SID160730467	5.11 (active)
TANK (TRAF family member associated NFKB activator)	SID160723863	0.947
TANK (TRAF family member associated NFKB activator)	SID160723872	0.438
TANK (TRAF family member associated NFKB activator)	SID160723877	1.12
OR11G2 (olfactory receptor family 11 subfamily G member 2)	SID160766514	-0.0722
OR11G2 (olfactory receptor family 11 subfamily G member 2)	SID160766515	-0.384
OR11G2 (olfactory receptor family 11 subfamily G member 2)	SID160766516	-0.752
C22orf31 (chromosome 22 open reading frame 31)	SID160732832	-0.149
C22orf31 (chromosome 22 open reading frame 31)	SID160736944	0.255
C22orf31 (chromosome 22 open reading frame 31)	SID160736945	-0.747
DLX4 (distal-less homeobox 4)	SID160730711	0.76
DLX4 (distal-less homeobox 4)	SID160754805	0.629
DLX4 (distal-less homeobox 4)	SID160754814	10.6 (active)
WSCD2 (WSC domain sialate O sulfotransferase 2)	SID160722767	-0.221
WSCD2 (WSC domain sialate O sulfotransferase 2)	SID160722768	4.92
WSCD2 (WSC domain sialate O sulfotransferase 2)	SID160722769	-0.979
PDX1 (pancreatic and duodenal homeobox 1)	SID160731143	-0.107
PDX1 (pancreatic and duodenal homeobox 1)	SID160775902	-0.502
PDX1 (pancreatic and duodenal homeobox 1)	SID160775903	1.23
ZBTB47 (zinc finger and BTB domain containing 47)	SID160754413	-0.749
ZBTB47 (zinc finger and BTB domain containing 47)	SID160754414	2.14
ZBTB47 (zinc finger and BTB domain containing 47)	SID160754415	-0.935
CLMN (calmin)	SID160749441	2.39
CLMN (calmin)	SID160749442	-0.757
CLMN (calmin)	SID160749443	-0.56
FOXN4 (forkhead box N4)	SID160755933	-0.181
FOXN4 (forkhead box N4)	SID160755934	1.56
FOXN4 (forkhead box N4)	SID160755935	1.59
PLCL2 (phospholipase C like 2)	SID160735769	-0.256
PLCL2 (phospholipase C like 2)	SID160735770	2.24
PLCL2 (phospholipase C like 2)	SID160735771	1.78
KMO (kynurenine 3-monooxygenase)	SID160720348	5.65 (active)
KMO (kynurenine 3-monooxygenase)	SID160720349	-1.35
KMO (kynurenine 3-monooxygenase)	SID160732066	-0.00141
KHDRBS3	SID160728974	0.0549
KHDRBS3	SID160728975	0.11
KHDRBS3	SID160728977	1.29

Called active (from the list above):
Target gene	PubChem SID	G2 robust z-score
RPL37 (ribosomal protein L37)	SID160716104	5.85 (active)
SAMD10 (sterile alpha motif domain containing 10)	SID160757850	5.75 (active)
DCTN6 (dynactin subunit 6)	SID160730467	5.11 (active)
DLX4 (distal-less homeobox 4)	SID160754814	10.6 (active)
KMO (kynurenine 3-monooxygenase)	SID160720348	5.65 (active)
